# Laboratory results from PubChem BioAssay AID540276 (National Center for Advancing Translational Sciences (NCATS), 2011).
# In all, about 300,000 compounds went through this assay and about 5,400 (1.8%) were called active. Inconclusive means that the source gave no clear call. Such entries were picked first, then a sample of the others. Calls come from the whole dose curve; tested in HEK293 cells. Where the call is inconclusive, the potency comes from a doubtful curve fit.
# Experiment: qHTS for inhibitors of binding or entry into cells for Marburg Virus
# Conditions: Marburg virus pseudotyped entry inhibition, cell reporter; series mostly up to 37.8 µM
# Potency is the fitted concentration of half-maximal effect.
row,SMILES,Potency
1,CC(Oc1ccc(F)cc1)C(=O)Nc1cc(S(=O)(=O)N2CCOCC2)ccc1N1CCCCC1 (centres undefined),"inconclusive: 11.2 µM [inhibitor, partial curve, poor fit]"
2,Cc1sc2nc(CSc3ccc([N+](=O)[O-])c(C(F)(F)F)c3)[nH]c(=O)c2c1C,"inconclusive: 35.5 µM [inhibitor, single point]"
3,Cc1ccc(C2CC(c3ccco3)=NN2S(C)(=O)=O)cc1 (centres undefined),inactive
4,Cn1c(CN2CCCCC2)nc2cc(NS(=O)(=O)c3ccc(Cl)cc3)ccc21,"inconclusive: 32.6 µM [inhibitor, single point]"
5,Fc1ccc(N/N=C/c2ccc(N3CCOCC3)cc2)c(F)c1,"inconclusive: 5.62 µM [activator, single point]"
6,O=C(/C=C/c1cn(CC(O)CN2CCCCC2)c2ccccc12)c1ccccc1 (centres undefined),"inconclusive: 35.5 µM [inhibitor, single point]"
7,Cc1ccc(C(=O)CCS(=O)(=O)c2ccc(Br)cc2)cc1,inactive
8,CN(C)c1ccc(/C=C/C=C/c2sc3ccccc3[n+]2C)cc1,"inconclusive: 10 µM [inhibitor, partial curve, poor fit]"
9,CCOC(=O)C1=C(C)NC(=S)NC1c1ccc(OC(=O)c2ccco2)cc1 (centres undefined),"inconclusive: 1.26 µM [inhibitor, single point]"
10,Cn1cc(/C=C/c2cc[n+](C)cc2)c2cc(Cl)ccc21,"inconclusive: 11.2 µM [inhibitor, partial curve, poor fit]"
11,Cc1ccc(S(=O)(=O)Nc2ccc(NC(=O)Nc3cccc(C(F)(F)F)c3)cc2)cc1,"inconclusive: 35.5 µM [inhibitor, single point]"
12,CCOC(=O)c1csc(NC(=O)CSc2nnnn2-c2ccc3c(c2)OCCO3)n1,inactive
13,Cc1cccc(C(=O)N/N=C/c2ccccn2)c1,"inconclusive: 29.1 µM [inhibitor, single point]"
14,O=S(=O)(c1cccs1)N1CCCc2cccc(O)c21,"inconclusive: 2.59 µM [activator, single point]"
15,CC(=O)Nc1ccc(C(=O)COC(=O)CCS(=O)(=O)c2ccccc2)cc1,inactive
16,CCCN(CCC)CCCNC(=O)CCNS(=O)(=O)c1ccc(Br)cc1,"inconclusive: 18.4 µM [inhibitor, partial curve, poor fit]"
17,CCc1c(C)nc2nncn2c1Nc1ccc(Cl)cc1,inactive
18,OCCC1CN(Cc2cccc3nonc23)CCN1C1CCCCC1 (centres undefined),"inconclusive: 12.6 µM [inhibitor, partial curve, poor fit]"
19,CCN(CC)c1ccc(/C=N\NC(=O)c2cccc3cc[nH]c23)cc1,inactive
20,Cn1c(=O)c2c(nc(Oc3cccc(O)c3)n2C)n(C)c1=O,inactive
21,Cc1ccc(/C=N/n2c(C3CCCCC3)n[nH]c2=S)s1,inactive
22,N/C(=N\OC(=O)c1ccc(Cl)c(Cl)c1)c1ccccn1,"inconclusive: 29.1 µM [inhibitor, single point]"
23,Cc1cc(C)n(CC(=O)NNC(=O)CCCOc2ccc(Cl)cc2C)n1,inactive

row,SMILES,Potency
1,CC(C)c1cc(C(F)(F)F)n2nc(C(=O)Nc3ccc4c(c3)OCO4)cc2n1,inactive
2,NC(=O)C1CCN(c2nc(-c3ccccc3)nc3ccccc23)CC1,inactive
3,CSC1=C(C#N)[C@H](c2ccc(C)s2)CC(=O)N1,inactive
4,Cc1cccc(C(=O)Nc2nc3nc(-c4ccccc4)cc(=O)n3[nH]2)c1,inactive
5,COc1ccc(-c2ccc(SCC(=O)Nc3cc(C)on3)nn2)cc1OC,"inconclusive: 1.3 µM [activator, single point]"
6,Cc1ccc2c(c1)C(c1ccccc1)N(C(=O)c1ccc(F)cc1)CC(=O)N2 (centres undefined),"inconclusive: 11.2 µM [inhibitor, single point]"
7,CCn1c(CN2CCN(C(c3ccccc3)c3ccccc3)CC2)nc2c1c(=O)n(C)c(=O)n2C,"inconclusive: 10 µM [inhibitor, partial curve, poor fit]"
8,CCC(NC(=O)Nc1ccc(O)cc1)(C(F)(F)F)C(F)(F)F,"inconclusive: 2.51 µM [inhibitor, full curve, poor fit]"
9,CC1CCCCC1NC(=O)c1cccc(S(=O)(=O)N2CCN(Cc3ccccc3)CC2)c1 (centres undefined),"inconclusive: 14.1 µM [inhibitor, single point]"
10,O=C(NCCC1=CCCCC1)C1CCN(Cc2cnn(-c3ccccc3)c2-n2cccc2)CC1,"inconclusive: 35.5 µM [inhibitor, single point]"
11,Cc1cccc(NC(=O)COc2coc(CN3CCN(c4ccccc4)CC3)cc2=O)c1C,inactive
12,N#CC1=C(N)OC2=C(C(=O)CC(c3ccccc3)C2)C1c1cccnc1 (centres undefined),"inconclusive: 1.26 µM [activator, full curve]"
13,CCOc1ccc(-c2cc(CCCC(=O)NCCC(C)C)no2)cc1,inactive
14,CCOC(=O)c1sc(NC(=O)CSc2nnnn2-c2ccc(C)cc2C)nc1C,inactive
15,Cc1csc(NC(=O)c2ccc(Cl)cc2[N+](=O)[O-])n1,"inconclusive: 35.5 µM [inhibitor, partial curve, poor fit]"
16,O=C(CN1CCN(c2ccccc2F)CC1)Nc1ccccc1F,inactive
17,N#C/C(=C\c1c(N2CCCCCC2)nc2ccccn2c1=O)C(N)=O,"inconclusive: 0.112 µM [inhibitor, full curve, poor fit]"
18,Nc1c(Br)cc(Br)c2c1C(=O)c1c(cccc1S(=O)(=O)O)C2=O,inactive
19,Cc1oc2ccc(O)cc2c1C(=O)c1ccc(Br)cc1,inactive
20,COc1ccc(N2CCN(CC(O)COc3ccccc3[N+](=O)[O-])CC2)cc1 (centres undefined),"inconclusive: 11.6 µM [activator, single point]"
21,CN1CCN(/N=C/c2ccc(Br)cc2)CC1,"inconclusive: 7.08 µM [activator, partial curve]"
22,CN(Cc1ccccc1)c1nc(N)c([N+](=O)[O-])c(NCc2ccccc2)n1,"inconclusive: 35.5 µM [inhibitor, single point]"
23,CCSc1ncc(Cl)c(C(=O)Nc2ccc(S(=O)(=O)Nc3ncccn3)cc2)n1,inactive

row,SMILES,Potency
1,Cc1ccccc1CSCC(=O)N1CCN(c2ccccc2)CC1,"inconclusive: 2.82 µM [activator, single point]"
2,O=C(CCCn1c(=O)[nH]c2ccccc2c1=O)NCCSCc1ccccc1,inactive
3,CC1CN(S(=O)(=O)c2cccc(C(=O)Nc3ccccc3N3CCCCC3)c2)CC(C)O1 (centres undefined),"inconclusive: 11.2 µM [inhibitor, single point]"
4,Cc1ccc(Cl)cc1N1CCN(C(=O)c2ccc(NS(=O)(=O)c3c(C)noc3C)cc2)CC1,"inconclusive: 7.94 µM [inhibitor, partial curve, poor fit]"
5,COc1cc(C(=O)/C=C/c2cccnc2)ccc1O,"inconclusive: 15.8 µM [inhibitor, single point]"
6,CC(=O)N1CCc2cc(Br)cc(S(=O)(=O)N3CCCCCC3)c21,inactive
7,C=CCn1c(COc2ccccc2)nnc1SCC(=O)Nc1ccc2c(c1)OCCO2,inactive
8,COCC(=O)N(C)c1nnc(-c2ccccn2)s1,inactive
9,CC(C)(C)c1cccc(Oc2nn[nH]n2)c1,"inconclusive: 0.231 µM [inhibitor, single point]"
10,COc1ccc(-c2ccc(CN3C(C(C)C)C(=O)N(Cc4cn(CC5CCCCC5)nn4)CCS3(=O)=O)cc2)cc1 (centres undefined),"inconclusive: 7.91 µM [inhibitor, partial curve, poor fit]"
11,Cc1sc2nc(CN3CCOCC3)nc(N3CCN(S(=O)(=O)c4ccccc4)CC3)c2c1C,"inconclusive: 35.5 µM [inhibitor, single point]"
12,COc1cccc(-c2cc(C(=O)NCc3cccs3)no2)c1,"inconclusive: 14.1 µM [activator, single point]"
13,COc1ccc(S(=O)(=O)Nc2ccccc2C(=O)NCc2cccnc2)cc1,"inconclusive: 3.55 µM [inhibitor, partial curve, poor fit]"
14,COc1ccc(NC(=O)CC2C(=O)N(C)C(=S)N2CCc2ccccc2)cc1 (centres undefined),"inconclusive: 14.6 µM [inhibitor, single point]"
15,COc1ccc(C(=O)Nn2c(SCc3ccc([N+](=O)[O-])cc3)nc3ccccc3c2=O)cc1,"inconclusive: 15.8 µM [inhibitor, partial curve, poor fit]"
16,COc1ccc(OC)c(N2CC(O)=C(c3nc4ccccc4s3)C2=N)c1,"inconclusive: 11.2 µM [inhibitor, partial curve, poor fit]"
17,Cn1c(=O)n(C)c2cc(N3CCOCC3)c(NC(=O)c3ccc(Cl)cc3)cc21,"inconclusive: 6.31 µM [inhibitor, single point]"
18,O=C(Cc1coc2cc3c(cc12)CCC3)OCC(=O)N1CCCC1=O,"inconclusive: 7.08 µM [inhibitor, partial curve, poor fit]"
19,Cc1c(CN2CCN(CC(C)C)C(CCO)C2)[nH]c2ccc(Cl)cc12 (centres undefined),"inconclusive: 11.2 µM [inhibitor, partial curve, poor fit]"
20,Cc1ccc(/C=N/n2cnc3sc(-c4ccccc4)cc3c2=O)o1,inactive
21,COc1ccc(-c2cc(C(=O)Nc3c(C)n(C)n(-c4ccccc4)c3=O)c3ccccc3n2)cc1,"inconclusive: 22.4 µM [inhibitor, single point]"
22,O=C1NC(=O)C(CC(=O)N(Cc2cccs2)C2(C(=O)NC3CCCC3)CCCCC2)N1 (centres undefined),"inconclusive: 9.2 µM [inhibitor, partial curve, poor fit]"
23,O=C(/C=C/c1ccc(Cl)cc1Cl)NC(=S)Nc1ccccn1,"inconclusive: 3.16 µM [activator, partial curve, poor fit]"

# 6 entries from above, bar-delimited:
row | SMILES | Potency
3 | CC1CN(S(=O)(=O)c2cccc(C(=O)Nc3ccccc3N3CCCCC3)c2)CC(C)O1 (centres undefined) | inconclusive: 11.2 µM [inhibitor, single point]
4 | Cc1ccc(Cl)cc1N1CCN(C(=O)c2ccc(NS(=O)(=O)c3c(C)noc3C)cc2)CC1 | inconclusive: 7.94 µM [inhibitor, partial curve, poor fit]
5 | COc1cc(C(=O)/C=C/c2cccnc2)ccc1O | inconclusive: 15.8 µM [inhibitor, single point]
6 | CC(=O)N1CCc2cc(Br)cc(S(=O)(=O)N3CCCCCC3)c21 | inactive
7 | C=CCn1c(COc2ccccc2)nnc1SCC(=O)Nc1ccc2c(c1)OCCO2 | inactive
8 | COCC(=O)N(C)c1nnc(-c2ccccn2)s1 | inactive
